Source: article PMC3720655

Amino acid sequences for entries named in this document (tags omitted). A change or cut given only in a name is not applied to a line headed by its entry. Residues count along the entry.
UniProt P27824, residues 21-592: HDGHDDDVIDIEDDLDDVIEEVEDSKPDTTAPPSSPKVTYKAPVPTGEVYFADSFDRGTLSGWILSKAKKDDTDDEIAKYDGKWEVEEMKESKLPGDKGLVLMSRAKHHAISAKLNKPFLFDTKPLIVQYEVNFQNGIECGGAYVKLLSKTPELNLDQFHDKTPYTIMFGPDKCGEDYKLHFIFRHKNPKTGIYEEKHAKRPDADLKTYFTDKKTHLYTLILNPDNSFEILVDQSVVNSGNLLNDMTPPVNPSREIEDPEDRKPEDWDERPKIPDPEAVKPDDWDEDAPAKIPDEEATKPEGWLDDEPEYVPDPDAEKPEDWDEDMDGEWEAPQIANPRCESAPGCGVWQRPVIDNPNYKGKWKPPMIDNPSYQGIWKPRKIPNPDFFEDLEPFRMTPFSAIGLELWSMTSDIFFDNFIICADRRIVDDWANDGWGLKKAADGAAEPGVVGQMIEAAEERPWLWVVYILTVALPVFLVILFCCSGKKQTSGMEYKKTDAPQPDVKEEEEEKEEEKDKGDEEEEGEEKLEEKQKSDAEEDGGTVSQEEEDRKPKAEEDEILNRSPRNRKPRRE
UniProt P07339: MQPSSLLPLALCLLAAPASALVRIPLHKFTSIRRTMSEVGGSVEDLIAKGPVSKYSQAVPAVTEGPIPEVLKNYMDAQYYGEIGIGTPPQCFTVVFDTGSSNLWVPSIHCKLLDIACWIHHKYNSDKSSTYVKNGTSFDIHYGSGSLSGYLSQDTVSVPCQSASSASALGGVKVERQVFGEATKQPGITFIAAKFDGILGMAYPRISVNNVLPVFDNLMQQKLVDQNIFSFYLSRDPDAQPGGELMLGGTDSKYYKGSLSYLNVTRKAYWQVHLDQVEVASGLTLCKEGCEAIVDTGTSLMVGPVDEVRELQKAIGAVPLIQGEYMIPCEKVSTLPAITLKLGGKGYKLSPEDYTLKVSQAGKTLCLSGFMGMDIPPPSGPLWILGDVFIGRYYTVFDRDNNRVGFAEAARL
UniProt P60228: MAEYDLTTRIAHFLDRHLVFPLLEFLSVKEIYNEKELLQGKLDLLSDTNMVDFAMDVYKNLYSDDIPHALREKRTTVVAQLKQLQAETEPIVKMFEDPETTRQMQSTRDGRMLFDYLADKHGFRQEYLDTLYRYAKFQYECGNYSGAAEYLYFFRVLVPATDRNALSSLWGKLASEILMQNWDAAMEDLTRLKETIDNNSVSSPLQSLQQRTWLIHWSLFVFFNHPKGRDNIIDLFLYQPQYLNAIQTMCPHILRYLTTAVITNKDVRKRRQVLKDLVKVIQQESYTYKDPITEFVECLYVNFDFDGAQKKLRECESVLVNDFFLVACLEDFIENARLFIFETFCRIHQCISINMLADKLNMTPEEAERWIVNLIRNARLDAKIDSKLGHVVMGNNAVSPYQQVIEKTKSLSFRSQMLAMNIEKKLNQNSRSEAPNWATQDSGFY
UniProt P29317, residues 24-976: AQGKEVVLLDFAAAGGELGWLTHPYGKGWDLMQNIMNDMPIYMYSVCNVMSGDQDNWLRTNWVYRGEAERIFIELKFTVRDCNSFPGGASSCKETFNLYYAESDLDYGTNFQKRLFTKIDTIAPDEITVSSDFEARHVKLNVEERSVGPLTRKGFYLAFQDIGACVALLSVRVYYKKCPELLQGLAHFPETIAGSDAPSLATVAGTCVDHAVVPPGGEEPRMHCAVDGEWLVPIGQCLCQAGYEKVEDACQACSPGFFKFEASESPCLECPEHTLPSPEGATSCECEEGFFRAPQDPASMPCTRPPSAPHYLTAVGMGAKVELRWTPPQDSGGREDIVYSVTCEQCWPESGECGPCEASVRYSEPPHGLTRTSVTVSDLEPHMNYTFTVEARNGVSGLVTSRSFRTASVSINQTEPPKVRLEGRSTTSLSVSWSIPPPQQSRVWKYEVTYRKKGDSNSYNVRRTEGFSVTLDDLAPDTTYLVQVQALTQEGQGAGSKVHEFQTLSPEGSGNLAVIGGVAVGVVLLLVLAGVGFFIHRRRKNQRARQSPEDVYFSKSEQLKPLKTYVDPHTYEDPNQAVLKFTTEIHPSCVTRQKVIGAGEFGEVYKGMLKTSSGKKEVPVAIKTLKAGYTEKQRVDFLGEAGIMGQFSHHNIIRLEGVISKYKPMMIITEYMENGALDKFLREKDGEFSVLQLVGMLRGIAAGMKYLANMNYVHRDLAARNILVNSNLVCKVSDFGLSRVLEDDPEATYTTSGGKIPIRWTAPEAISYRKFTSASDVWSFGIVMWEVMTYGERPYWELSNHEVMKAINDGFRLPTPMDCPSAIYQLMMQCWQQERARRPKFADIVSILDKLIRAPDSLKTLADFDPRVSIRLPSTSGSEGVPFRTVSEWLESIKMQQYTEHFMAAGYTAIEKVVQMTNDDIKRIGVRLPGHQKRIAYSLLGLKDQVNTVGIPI
UniProt Q92522: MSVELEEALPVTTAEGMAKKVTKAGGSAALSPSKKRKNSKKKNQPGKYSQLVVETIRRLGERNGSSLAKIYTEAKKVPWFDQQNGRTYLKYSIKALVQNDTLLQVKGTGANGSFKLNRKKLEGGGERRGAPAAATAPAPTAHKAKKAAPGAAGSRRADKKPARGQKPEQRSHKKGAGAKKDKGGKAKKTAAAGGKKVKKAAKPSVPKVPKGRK
UniProt P17931: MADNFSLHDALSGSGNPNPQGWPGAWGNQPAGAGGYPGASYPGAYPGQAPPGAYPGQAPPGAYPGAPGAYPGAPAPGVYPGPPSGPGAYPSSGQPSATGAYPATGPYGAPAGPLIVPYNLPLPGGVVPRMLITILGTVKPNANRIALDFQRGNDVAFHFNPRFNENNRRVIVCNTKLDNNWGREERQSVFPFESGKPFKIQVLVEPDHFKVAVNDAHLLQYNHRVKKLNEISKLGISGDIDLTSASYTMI
UniProt P22392: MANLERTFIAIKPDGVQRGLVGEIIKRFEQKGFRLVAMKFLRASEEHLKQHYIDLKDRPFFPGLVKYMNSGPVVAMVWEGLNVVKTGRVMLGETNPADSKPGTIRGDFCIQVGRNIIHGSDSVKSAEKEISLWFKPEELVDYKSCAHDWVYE
UniProt P49721: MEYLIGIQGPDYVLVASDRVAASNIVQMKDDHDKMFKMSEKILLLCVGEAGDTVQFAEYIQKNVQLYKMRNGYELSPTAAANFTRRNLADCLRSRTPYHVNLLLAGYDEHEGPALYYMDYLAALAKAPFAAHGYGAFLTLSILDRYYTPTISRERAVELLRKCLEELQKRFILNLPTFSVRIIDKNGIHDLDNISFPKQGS
UniProt P37802: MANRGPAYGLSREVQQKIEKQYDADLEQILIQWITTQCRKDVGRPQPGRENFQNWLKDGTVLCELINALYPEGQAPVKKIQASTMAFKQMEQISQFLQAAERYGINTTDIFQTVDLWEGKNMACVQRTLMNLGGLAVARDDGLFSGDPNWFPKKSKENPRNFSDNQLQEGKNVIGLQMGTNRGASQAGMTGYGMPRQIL
UniProt Q13148: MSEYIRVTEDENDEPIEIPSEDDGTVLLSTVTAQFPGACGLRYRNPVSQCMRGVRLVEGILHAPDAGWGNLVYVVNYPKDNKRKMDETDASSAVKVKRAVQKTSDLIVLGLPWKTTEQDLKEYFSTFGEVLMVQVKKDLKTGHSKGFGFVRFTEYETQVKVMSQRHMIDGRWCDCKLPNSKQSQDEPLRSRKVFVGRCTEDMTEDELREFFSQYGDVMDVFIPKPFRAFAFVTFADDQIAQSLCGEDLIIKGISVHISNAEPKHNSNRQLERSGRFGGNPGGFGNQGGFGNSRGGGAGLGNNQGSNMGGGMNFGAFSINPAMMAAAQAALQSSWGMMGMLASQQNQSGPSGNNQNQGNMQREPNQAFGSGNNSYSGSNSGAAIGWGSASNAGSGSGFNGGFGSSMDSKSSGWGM
UniProt Q9Y490: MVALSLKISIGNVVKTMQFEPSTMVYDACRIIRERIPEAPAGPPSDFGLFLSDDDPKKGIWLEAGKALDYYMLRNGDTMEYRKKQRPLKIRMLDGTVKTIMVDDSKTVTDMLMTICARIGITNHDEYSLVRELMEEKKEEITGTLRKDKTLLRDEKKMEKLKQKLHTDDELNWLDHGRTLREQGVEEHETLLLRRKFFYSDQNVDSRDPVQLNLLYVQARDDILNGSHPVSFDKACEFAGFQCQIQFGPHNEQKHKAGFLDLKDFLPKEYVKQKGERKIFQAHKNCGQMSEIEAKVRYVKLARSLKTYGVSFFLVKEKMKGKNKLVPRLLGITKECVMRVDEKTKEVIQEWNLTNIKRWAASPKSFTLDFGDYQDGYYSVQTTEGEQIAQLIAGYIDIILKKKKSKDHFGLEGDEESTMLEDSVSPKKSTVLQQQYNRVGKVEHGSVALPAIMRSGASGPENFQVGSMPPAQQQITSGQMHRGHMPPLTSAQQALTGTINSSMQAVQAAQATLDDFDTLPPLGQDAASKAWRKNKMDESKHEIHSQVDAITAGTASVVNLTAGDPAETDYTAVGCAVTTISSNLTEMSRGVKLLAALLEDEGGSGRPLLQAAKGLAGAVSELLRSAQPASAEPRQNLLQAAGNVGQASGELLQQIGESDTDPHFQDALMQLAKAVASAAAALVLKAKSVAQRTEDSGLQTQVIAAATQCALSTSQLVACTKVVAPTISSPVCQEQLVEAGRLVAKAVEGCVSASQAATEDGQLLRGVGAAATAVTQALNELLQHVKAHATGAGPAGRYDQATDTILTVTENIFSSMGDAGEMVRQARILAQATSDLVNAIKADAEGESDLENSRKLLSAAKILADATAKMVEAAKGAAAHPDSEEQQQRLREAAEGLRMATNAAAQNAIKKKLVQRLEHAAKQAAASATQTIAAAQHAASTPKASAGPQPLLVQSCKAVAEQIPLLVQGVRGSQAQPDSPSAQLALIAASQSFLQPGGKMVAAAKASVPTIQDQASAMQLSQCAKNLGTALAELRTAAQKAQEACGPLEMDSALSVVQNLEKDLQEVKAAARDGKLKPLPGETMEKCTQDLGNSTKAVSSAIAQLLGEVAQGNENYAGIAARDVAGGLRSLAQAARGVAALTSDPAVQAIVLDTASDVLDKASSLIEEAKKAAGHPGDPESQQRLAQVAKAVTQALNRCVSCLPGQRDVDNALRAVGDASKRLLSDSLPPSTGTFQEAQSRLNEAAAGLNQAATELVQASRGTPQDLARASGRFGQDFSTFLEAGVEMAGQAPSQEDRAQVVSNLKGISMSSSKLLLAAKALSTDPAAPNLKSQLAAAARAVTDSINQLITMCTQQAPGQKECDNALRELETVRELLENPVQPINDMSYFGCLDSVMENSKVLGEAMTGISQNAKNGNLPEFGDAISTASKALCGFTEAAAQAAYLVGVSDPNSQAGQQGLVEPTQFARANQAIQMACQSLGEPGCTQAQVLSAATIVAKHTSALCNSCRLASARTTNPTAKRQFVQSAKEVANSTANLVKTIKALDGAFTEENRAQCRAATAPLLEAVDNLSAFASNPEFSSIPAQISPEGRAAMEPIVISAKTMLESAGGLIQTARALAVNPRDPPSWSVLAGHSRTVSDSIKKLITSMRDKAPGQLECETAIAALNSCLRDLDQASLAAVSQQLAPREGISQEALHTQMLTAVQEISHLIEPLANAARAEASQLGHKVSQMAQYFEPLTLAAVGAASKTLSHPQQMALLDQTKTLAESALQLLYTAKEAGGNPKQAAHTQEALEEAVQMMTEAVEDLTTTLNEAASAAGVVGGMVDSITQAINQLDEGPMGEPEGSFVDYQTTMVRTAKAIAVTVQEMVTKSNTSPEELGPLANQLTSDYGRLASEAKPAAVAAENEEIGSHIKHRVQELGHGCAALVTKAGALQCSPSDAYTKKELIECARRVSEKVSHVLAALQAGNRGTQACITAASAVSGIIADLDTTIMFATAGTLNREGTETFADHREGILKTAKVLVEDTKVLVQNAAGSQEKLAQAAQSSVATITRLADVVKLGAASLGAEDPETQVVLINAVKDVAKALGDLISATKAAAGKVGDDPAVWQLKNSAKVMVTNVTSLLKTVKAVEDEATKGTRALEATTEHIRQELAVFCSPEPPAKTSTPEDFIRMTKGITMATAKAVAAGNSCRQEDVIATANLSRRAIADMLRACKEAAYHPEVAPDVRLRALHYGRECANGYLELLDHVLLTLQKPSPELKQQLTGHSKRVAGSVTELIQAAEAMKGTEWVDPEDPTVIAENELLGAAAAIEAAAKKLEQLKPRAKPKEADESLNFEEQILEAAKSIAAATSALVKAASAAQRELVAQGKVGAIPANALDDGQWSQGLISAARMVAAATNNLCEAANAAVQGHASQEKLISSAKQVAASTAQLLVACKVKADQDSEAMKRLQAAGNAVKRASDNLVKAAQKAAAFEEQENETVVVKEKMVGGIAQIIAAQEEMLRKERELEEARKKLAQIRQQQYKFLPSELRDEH

T1: KIAA1199-V5 (human) (UniProt Q8WUJ3)
T1 sequence: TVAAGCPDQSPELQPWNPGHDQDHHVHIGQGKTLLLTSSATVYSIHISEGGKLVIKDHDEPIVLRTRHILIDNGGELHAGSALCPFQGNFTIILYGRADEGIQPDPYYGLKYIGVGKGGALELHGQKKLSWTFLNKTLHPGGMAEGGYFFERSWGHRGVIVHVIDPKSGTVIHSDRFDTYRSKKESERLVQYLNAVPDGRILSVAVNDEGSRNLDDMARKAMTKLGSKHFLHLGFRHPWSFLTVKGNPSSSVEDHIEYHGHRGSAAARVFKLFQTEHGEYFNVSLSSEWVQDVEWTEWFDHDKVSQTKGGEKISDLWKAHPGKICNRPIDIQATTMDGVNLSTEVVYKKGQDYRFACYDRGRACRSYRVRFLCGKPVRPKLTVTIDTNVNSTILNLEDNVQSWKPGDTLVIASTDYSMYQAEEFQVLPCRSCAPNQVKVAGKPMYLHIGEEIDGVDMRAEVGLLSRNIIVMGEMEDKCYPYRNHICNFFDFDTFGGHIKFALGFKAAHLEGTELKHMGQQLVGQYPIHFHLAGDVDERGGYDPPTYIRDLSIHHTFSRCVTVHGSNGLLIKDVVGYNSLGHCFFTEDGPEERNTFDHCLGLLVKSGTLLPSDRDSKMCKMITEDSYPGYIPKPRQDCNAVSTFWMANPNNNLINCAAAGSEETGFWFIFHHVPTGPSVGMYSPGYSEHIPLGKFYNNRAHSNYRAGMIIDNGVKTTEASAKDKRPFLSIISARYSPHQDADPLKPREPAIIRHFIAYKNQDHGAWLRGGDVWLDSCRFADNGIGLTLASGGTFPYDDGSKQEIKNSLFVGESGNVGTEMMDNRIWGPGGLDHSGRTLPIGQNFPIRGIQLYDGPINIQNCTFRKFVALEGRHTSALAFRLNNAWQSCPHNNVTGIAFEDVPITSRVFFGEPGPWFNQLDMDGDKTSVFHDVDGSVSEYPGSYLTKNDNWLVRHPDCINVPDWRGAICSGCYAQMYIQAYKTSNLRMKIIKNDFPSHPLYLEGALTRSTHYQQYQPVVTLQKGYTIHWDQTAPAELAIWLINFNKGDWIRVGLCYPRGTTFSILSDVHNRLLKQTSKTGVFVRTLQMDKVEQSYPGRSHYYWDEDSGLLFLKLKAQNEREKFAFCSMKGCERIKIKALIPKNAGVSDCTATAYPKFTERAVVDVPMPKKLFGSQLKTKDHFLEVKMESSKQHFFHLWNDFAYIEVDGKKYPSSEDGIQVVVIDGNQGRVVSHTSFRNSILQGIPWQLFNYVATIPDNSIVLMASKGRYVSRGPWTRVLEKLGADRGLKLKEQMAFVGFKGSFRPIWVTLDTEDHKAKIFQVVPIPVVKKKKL

B1: calpain small subunit (CAPNS1) (protein, UniProt P04632 1-268)
chain: MFLVNSFLKGGGGGGGGGGGLGGGLGNVLGGLISGAGGGGGGGGGGGGGGGGGGGGTAMRILGGVISAISEAAAQYNPEPPPPRTHYSNIEANESEEVRQFRRLFAQLAGDDMEVSATELMNILNKVVTRHPDLKTDGFGIDTCRSMVAVMDSDTTGKLGFEEFKYLWNNIKRWQAIYKQFDTDRSGTICSSELPGAFEAAGFHLNEHLYNMIIRRYSDESGNMDFDNFISCLVRLDAMFRAFKSLDKDGTGQIQVNIQEWLQLTMYS
B2: TKT (protein, UniProt P29401 1-623)
chain: MESYHKPDQQKLQALKDTANRLRISSIQATTAAGSGHPTSCCSAAEIMAVLFFHTMRYKSQDPRNPHNDRFVLSKGHAAPILYAVWAEAGFLAEAELLNLRKISSDLDGHPVPKQAFTDVATGSLGQGLGAACGMAYTGKYFDKASYRVYCLLGDGELSEGSVWEAMAFASIYKLDNLVAILDINRLGQSDPAPLQHQMDIYQKRCEAFGWHAIIVDGHSVEELCKAFGQAKHQPTAIIAKTFKGRGITGVEDKESWHGKPLPKNMAEQIIQEIYSQIQSKKKILATPPQEDAPSVDIANIRMPSLPSYKVGDKIATRKAYGQALAKLGHASDRIIALDGDTKNSTFSEIFKKEHPDRFIECYIAEQNMVSIAVGCATRNRTVPFCSTFAAFFTRAFDQIRMAAISESNINLCGSHCGVSIGEDGPSQMALEDLAMFRSVPTSTVFYPSDGVATEKAVELAANTKGICFIRTSRPENAIIYNNNEDFQVGQAKVVLKSKDDQVTVIGAGVTLHEALAAAELLKKEKINIRVLDPFTIKPLDRKLILDSARATKGRILTVEDHYYEGGIGEAVSSAVVGEPGITVTHLAVNRVPRSGKPAELLKMFGIDRDAIAQAVRGLITKA
B3: MFGE8 (protein, UniProt Q08431 24-387)
chain: LDICSKNPCHNGGLCEEISQEVRGDVFPSYTCTCLKGYAGNHCETKCVEPLGLENGNIANSQIAASSVRVTFLGLQHWVPELARLNRAGMVNAWTPSSNDDNPWIQVNLLRRMWVTGVVTQGASRLASHEYLKAFKVAYSLNGHEFDFIHDVNKKHKEFVGNWNKNAVHVNLFETPVEAQYVRLYPTSCHTACTLRFELLGCELNGCANPLGLKNNSIPDKQITASSSYKTWGLHLFSWNPSYARLDKQGNFNAWVAGSYGNDQWLQVDLGSSKEVTGIITQGARNFGSVQFVASYKVAYSNDSANWTEYQDPRTGSSKIFPGNWDNHSHKKNLFETPILARYVRILPVAWHNRIALRLELLGC
B4: HYOU1 (protein, UniProt Q9Y4L1 33-999)
chain: LAVMSVDLGSESMKVAIVKPGVPMEIVLNKESRRKTPVIVTLKENERFFGDSAASMAIKNPKATLRYFQHLLGKQADNPHVALYQARFPEHELTFDPQRQTVHFQISSQLQFSPEEVLGMVLNYSRSLAEDFAEQPIKDAVITVPVFFNQAERRAVLQAARMAGLKVLQLINDNTATALSYGVFRRKDINTTAQNIMFYDMGSGSTVCTIVTYQMVKTKEAGMQPQLQIRGVGFDRTLGGLEMELRLRERLAGLFNEQRKGQRAKDVRENPRAMAKLLREANRLKTVLSANADHMAQIEGLMDDVDFKAKVTRVEFEELCADLFERVPGPVQQALQSAEMSLDEIEQVILVGGATRVPRVQEVLLKAVGKEELGKNINADEAAAMGAVYQAAALSKAFKVKPFVVRDAVVYPILVEFTREVEEEPGIHSLKHNKRVLFSRMGPYPQRKVITFNRYSHDFNFHINYGDLGFLGPEDLRVFGSQNLTTVKLKGVGDSFKKYPDYESKGIKAHFNLDESGVLSLDRVESVFETLVEDSAEEESTLTKLGNTISSLFGGGTTPDAKENGTDTVQEEEESPAEGSKDEPGEQVELKEEAEAPVEDGSQPPPPEPKGDATPEGEKATEKENGDKSEAQKPSEKAEAGPEGVAPAPEGEKKQKPARKRRMVEEIGVELVVLDLPDLPEDKLAQSVQKLQDLTLRDLEKQEREKAANSLEAFIFETQDKLYQPEYQEVSTEEQREEISGKLSAASTWLEDEGVGATTVMLKEKLAELRKLCQGLFFRVEERKKWPERLSALDNLLNHSSMFLKGARLIPEMDQIFTEVEMTTLEKVINETWAWKNATLAEQAKLPATEKPVLLSKDIEAKMMALDREVQYLLNKAKFTKPRPRPKDKNGTRAEPPLNASASDQGEKVIPPAGQTEDAEPISEPEKVETGSEPGDTEPLELGGPGAEPEQKEQSTGQKRPLKNDEL
B5: CTNND1 (protein, UniProt O60716 1-968)
chain: MDDSEVESTASILASVKEQEAQFEKLTRALEEERRHVSAQLERVRVSPQDANPLMANGTLTRRHQNGRFVGDADLERQKFSDLKLNGPQDHSHLLYSTIPRMQEPGQIVETYTEEDPEGAMSVVSVETSDDGTTRRTETTVKKVVKTVTTRTVQPVAMGPDGLPVDASSVSNNYIQTLGRDFRKNGNGGPGPYVGQAGTATLPRNFHYPPDGYSRHYEDGYPGGSDNYGSLSRVTRIEERYRPSMEGYRAPSRQDVYGPQPQVRVGGSSVDLHRFHPEPYGLEDDQRSMGYDDLDYGMMSDYGTARRTGTPSDPRRRLRSYEDMIGEEVPSDQYYWAPLAQHERGSLASLDSLRKGGPPPPNWRQPELPEVIAMLGFRLDAVKSNAAAYLQHLCYRNDKVKTDVRKLKGIPVLVGLLDHPKKEVHLGACGALKNISFGRDQDNKIAIKNCDGVPALVRLLRKARDMDLTEVITGTLWNLSSHDSIKMEIVDHALHALTDEVIIPHSGWEREPNEDCKPRHIEWESVLTNTAGCLRNVSSERSEARRKLRECDGLVDALIFIVQAEIGQKDSDSKLVENCVCLLRNLSYQVHREIPQAERYQEAAPNVANNTGPHAASCFGAKKGKDEWFSRGKKPIEDPANDTVDFPKRTSPARGYELLFQPEVVRIYISLLKESKTPAILEASAGAIQNLCAGRWTYGRYIRSALRQEKALSAIADLLTNEHERVVKAASGALRNLAVDARNKELIGKHAIPNLVKNLPGGQQNSSWNFSEDTVISILNTINEVIAENLEAAKKLRETQGIEKLVLINKSGNRSEKEVRAAALVLQTIWGYKELRKPLEKEGWKKSDFQVNLNNASRSQSSHSYDDSTLPLIDRNQKSDKKPDREEIQMSNMGSNTKSLDNNYSTPNERGDHNRTLDRSGDLGDMEPLKGTTPLMQDEGQESLEEELDVLVLDDEGGQVSYPSMQKI
B6: HPRT1 (protein, UniProt P00492 1-218)
chain: MATRSPGVVISDDEPGYDLDLFCIPNHYAEDLERVFIPHGLIMDRTERLARDVMKEMGGHHIVALCVLKGGYKFFADLLDYIKALNRNSDRSIPMTVDFIRLKSYCNDQSTGDIKVIGGDDLSTLTGKNVLIVEDIIDTGKTMQTLLSLVRQYNPKMVKVASLLVKRTPRSVGYKPDFVGFEIPDKFVVGYALDYNEYFRDLNHVCVISETGKAKYKA

These molecules were tested against T1, KIAA1199-V5 (human) (assay: affinity purification with mass spectrometry; three independent IPs of KIAA1199 from SW480 clone extracts (exp. 1 and 3 KIAA1199-V5, exp. 2 KIAA1199-Cl.18); IP lysis buffer 150 mM NaCl, 1% NP-40, 50 mM Tris-HCl pH 8.0; gel slices, trypsin, LTQ-Orbitrap or LTQ-ICR-FT-Ultra; hits in at least 2 of 3 experiments against control immunoprecipitates).

| binding | Molecule |
| --- | --- |
| binds | B1 |
| binds | B2 |
| binds | B3 |
| binds | B4 |
| binds | B5 |
| binds | B6 |

Molecular target: T1, KIAA1199-V5 (human)
Assay: as above
Remark: another data set of the same source

| binding | Molecule |
| --- | --- |
| binds | CANX (from UniProt P27824 21-592) |
| binds | CTSD (from UniProt P07339) |
| binds | EIF3E (from UniProt P60228 1-445) |
| binds | EPHA2 (from UniProt P29317 24-976) (receptor) |
| binds | H1FX (from UniProt Q92522 1-213) |
| binds | HSP90B1 (from UniProt P14625 22-803) |
| binds | ITPR3 (from UniProt Q14573 1-2671) (receptor) |
| binds | LGALS3 (from UniProt P17931 1-250) |
| binds | LRP1 (from UniProt Q07954 20-4544) (receptor) |
| binds | NME2 (from UniProt P22392 1-152) |
| binds | PSMB2 (from UniProt P49721 1-201) |
| binds | TAGLN2 (from UniProt P37802 1-199) |
| binds | TARDBP (from UniProt Q13148 1-414) |
| binds | TLN1 (from UniProt Q9Y490 1-2541) |
| binds | UBR5 (from UniProt O95071 1-2799) |

Results are given in words; binding and its absence hold for the method and conditions named. In cells and extracts the contact can be indirect. Here binding means that the protein was enriched with, or labelled near, the bait; the list need not be complete. Sequences can lack the tags named with a protein.
